Measurements: paper PMC3168500
These are yes or no findings as the source states them, for the method shown. In cells and extracts the contact can be indirect. Some binding calls cover weakened binding; strength is not graded here.

The chains behind the UniProt entries cited, without tags or fusion partners.
UniProt P38532: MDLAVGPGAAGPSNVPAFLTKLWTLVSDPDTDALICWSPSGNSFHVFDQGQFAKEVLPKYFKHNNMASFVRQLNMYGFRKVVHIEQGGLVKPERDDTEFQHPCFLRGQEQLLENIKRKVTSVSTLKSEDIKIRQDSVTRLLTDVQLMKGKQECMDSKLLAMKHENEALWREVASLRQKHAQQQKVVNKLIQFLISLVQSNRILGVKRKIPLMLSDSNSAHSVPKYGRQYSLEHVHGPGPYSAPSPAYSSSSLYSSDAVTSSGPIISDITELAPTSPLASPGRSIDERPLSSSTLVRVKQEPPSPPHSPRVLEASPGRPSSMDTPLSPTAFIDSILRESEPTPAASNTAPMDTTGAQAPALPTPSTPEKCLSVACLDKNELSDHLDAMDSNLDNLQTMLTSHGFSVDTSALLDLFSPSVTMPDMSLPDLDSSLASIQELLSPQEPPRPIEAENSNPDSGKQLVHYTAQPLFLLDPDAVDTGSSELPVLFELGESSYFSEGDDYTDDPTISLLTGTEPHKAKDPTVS
UniProt Q9WTL8: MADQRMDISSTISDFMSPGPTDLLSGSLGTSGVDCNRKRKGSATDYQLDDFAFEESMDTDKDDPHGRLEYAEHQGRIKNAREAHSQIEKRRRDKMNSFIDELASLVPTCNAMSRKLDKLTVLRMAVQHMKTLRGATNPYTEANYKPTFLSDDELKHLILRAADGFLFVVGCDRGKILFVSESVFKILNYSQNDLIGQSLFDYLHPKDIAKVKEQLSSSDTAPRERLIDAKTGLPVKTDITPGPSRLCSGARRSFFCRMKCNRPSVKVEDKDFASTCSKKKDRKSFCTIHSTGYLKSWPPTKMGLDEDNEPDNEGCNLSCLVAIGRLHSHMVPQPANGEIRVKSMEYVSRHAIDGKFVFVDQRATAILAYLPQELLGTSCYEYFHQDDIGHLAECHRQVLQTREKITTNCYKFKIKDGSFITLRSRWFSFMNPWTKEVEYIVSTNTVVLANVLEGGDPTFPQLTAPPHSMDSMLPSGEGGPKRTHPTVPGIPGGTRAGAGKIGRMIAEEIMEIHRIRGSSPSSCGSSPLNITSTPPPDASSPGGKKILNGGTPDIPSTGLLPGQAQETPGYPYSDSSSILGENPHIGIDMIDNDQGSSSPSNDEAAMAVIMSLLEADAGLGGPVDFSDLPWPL

B1: CLOCK (protein, UniProt O08785 1-855)
chain: MVFTVSCSKMSSIVDRDDSSIFDGLVEEDDKDKAKRVSRNKSEKKRRDQFNVLIKELGSMLPGNARKMDKSTVLQKSIDFLRKHKETTAQSDASEIRQDWKPTFLSNEEFTQLMLEALDGFFLAIMTDGSIIYVSESVTSLLEHLPSDLVDQSIFNFIPEGEHSEVYKILSTHLLESDSLTPEYLKSKNQLEFCCHMLRGTIDPKEPSTYEYVRFIGNFKSLTSVSTSTHNGFEGTIQRTHRPSYEDRVCFVATVRLATPQFIKEMCTVEEPNEEFTSRHSLEWKFLFLDHRAPPIIGYLPFEVLGTSGYDYYHVDDLENLAKCHEHLMQYGKGKSCYYRFLTKGQQWIWLQTHYYITYHQWNSRPEFIVCTHTVVSYAEVRAERRRELGIEESLPETAADKSQDSGSDNRINTVSLKEALERFDHSPTPSASSRSSRKSSHTAVSDPSSTPTKIPTDTSTPPRQHLPAHEKMTQRRSSFSSQSINSQSVGPSLTQPAMSQAANLPIPQGMSQFQFSAQLGAMQHLKDQLEQRTRMIEANIHRQQEELRKIQEQLQMVHGQGLQMFLQQSNPGLNFGSVQLSSGNSNIQQLTPVNMQGQVVPANQVQSGHISTGQHMIQQQTLQSTSTQQSQQSVMSGHSQQTSLPSQTPSTLTAPLYNTMVISQPAAGSMVQIPSSMPQNSTQSATVTTFTQDRQIRFSQGQQLVTKLVTAPVACGAVMVPSTMLMGQVVTAYPTFATQQQQAQTLSVTQQQQQQQQQPPQQQQQQQQSSQEQQLPSVQQPAQAQLGQPPQQFLQTSRLLHGNPSTQLILSAAFPLQQSTFPPSHHQQHQPQQQQQLPRHRTDSLTDPSKVQPQ

Columns and labels:
[1] = biological target: Heat shock factor 1 (mouse (endogenous in MEFs)) (UniProt P38532); assay: co-IP; endogenous proteins in lysates of WT MEFs taken before, without and at times (3 and 21 h) after an HS pulse (43°C, 30 min); immunoprecipitation with anti-BMAL1 or anti-HSF1 antibody, immunoblotting for HSF1, BMAL1 and CLOCK
[2] = biological target: BMAL1 (mouse (endogenous in MEFs)) (UniProt Q9WTL8); assay: as above

Row | Molecule | binding [1] | binding [2]
1 | BMAL1 (from UniProt Q9WTL8 1-632) | binds | –
2 | Heat shock factor 1 (from UniProt P38532 1-525) | – | binds
3 | B1 | binds | binds
